Data published in article PMC9051106, “Structural insights into TRPV2 activation by small molecules” (Nature Communications, 2022).
These are yes or no findings as the source states them, for the method shown. Some results given as binding are weak or reduced against the parent protein; the word gives no strength.

Molecular target: T1, Transient receptor potential vanilloid 2 (TRPV2), full-length wildtype rat, in lipid nanodiscs (rat), Q9WUD2
T1 chain: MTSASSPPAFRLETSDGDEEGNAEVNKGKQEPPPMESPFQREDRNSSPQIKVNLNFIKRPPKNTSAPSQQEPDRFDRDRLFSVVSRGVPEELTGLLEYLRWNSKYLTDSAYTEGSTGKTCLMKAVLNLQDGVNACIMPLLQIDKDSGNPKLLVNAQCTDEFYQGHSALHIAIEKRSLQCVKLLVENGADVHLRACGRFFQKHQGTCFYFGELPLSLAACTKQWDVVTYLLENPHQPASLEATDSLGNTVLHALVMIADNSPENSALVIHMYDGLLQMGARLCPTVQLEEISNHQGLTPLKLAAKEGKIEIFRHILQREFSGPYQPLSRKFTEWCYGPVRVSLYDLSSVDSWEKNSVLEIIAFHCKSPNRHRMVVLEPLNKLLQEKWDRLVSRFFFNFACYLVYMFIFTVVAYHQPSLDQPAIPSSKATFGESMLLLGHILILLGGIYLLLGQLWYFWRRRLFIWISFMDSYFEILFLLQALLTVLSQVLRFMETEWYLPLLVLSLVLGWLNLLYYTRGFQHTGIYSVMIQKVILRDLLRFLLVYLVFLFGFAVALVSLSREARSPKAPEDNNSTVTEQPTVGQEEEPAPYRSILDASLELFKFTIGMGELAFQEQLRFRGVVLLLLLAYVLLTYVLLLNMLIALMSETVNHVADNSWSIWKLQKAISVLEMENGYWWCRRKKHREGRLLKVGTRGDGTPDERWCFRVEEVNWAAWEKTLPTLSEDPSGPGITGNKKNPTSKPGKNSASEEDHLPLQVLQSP
Assay: cryo-EM structure; rat TRPV2 in lipid nanodiscs (MSP2N2, soy polar lipids), incubated with 1 mM 2-APB for 5 min, or with 1 mM 2-APB and 30 uM CBD for 30 min, before vitrification; refined with C4 symmetry; both purified
Conditions: remark: other sources report otherwise

binding: binds
B1: Transient receptor potential vanilloid 2 (TRPV2), full-length wildtype rat, in lipid nanodiscs, Q9WUD2 1-761 (protein)
chain: MTSASSPPAFRLETSDGDEEGNAEVNKGKQEPPPMESPFQREDRNSSPQIKVNLNFIKRPPKNTSAPSQQEPDRFDRDRLFSVVSRGVPEELTGLLEYLRWNSKYLTDSAYTEGSTGKTCLMKAVLNLQDGVNACIMPLLQIDKDSGNPKLLVNAQCTDEFYQGHSALHIAIEKRSLQCVKLLVENGADVHLRACGRFFQKHQGTCFYFGELPLSLAACTKQWDVVTYLLENPHQPASLEATDSLGNTVLHALVMIADNSPENSALVIHMYDGLLQMGARLCPTVQLEEISNHQGLTPLKLAAKEGKIEIFRHILQREFSGPYQPLSRKFTEWCYGPVRVSLYDLSSVDSWEKNSVLEIIAFHCKSPNRHRMVVLEPLNKLLQEKWDRLVSRFFFNFACYLVYMFIFTVVAYHQPSLDQPAIPSSKATFGESMLLLGHILILLGGIYLLLGQLWYFWRRRLFIWISFMDSYFEILFLLQALLTVLSQVLRFMETEWYLPLLVLSLVLGWLNLLYYTRGFQHTGIYSVMIQKVILRDLLRFLLVYLVFLFGFAVALVSLSREARSPKAPEDNNSTVTEQPTVGQEEEPAPYRSILDASLELFKFTIGMGELAFQEQLRFRGVVLLLLLAYVLLTYVLLLNMLIALMSETVNHVADNSWSIWKLQKAISVLEMENGYWWCRRKKHREGRLLKVGTRGDGTPDERWCFRVEEVNWAAWEKTLPTLSEDPSGPGITGNKKNPTSKPGKNSASEEDHLPLQVLQSP
